The target in test [1] is Sec10-GST (full-length human Sec10 fused to GST) (human) (UniProt O00471). In words: pull-down; Sec10-GST or GST only bound to glutathione-Sepharose, incubated overnight with lysate of wild-type HEK293 cells; Western blot for IFT88, IFT20, Sec8, GAPDH; only the target purified. (In general: Immunoblotting shows a protein as a band on a membrane.)
Test [2] concerns the target T1, polycystin-2 (endogenous, mouse) (mouse (endogenous in mouse kidney and in 94D and BAP2 cells)) (UniProt O35245).
T1 sequence: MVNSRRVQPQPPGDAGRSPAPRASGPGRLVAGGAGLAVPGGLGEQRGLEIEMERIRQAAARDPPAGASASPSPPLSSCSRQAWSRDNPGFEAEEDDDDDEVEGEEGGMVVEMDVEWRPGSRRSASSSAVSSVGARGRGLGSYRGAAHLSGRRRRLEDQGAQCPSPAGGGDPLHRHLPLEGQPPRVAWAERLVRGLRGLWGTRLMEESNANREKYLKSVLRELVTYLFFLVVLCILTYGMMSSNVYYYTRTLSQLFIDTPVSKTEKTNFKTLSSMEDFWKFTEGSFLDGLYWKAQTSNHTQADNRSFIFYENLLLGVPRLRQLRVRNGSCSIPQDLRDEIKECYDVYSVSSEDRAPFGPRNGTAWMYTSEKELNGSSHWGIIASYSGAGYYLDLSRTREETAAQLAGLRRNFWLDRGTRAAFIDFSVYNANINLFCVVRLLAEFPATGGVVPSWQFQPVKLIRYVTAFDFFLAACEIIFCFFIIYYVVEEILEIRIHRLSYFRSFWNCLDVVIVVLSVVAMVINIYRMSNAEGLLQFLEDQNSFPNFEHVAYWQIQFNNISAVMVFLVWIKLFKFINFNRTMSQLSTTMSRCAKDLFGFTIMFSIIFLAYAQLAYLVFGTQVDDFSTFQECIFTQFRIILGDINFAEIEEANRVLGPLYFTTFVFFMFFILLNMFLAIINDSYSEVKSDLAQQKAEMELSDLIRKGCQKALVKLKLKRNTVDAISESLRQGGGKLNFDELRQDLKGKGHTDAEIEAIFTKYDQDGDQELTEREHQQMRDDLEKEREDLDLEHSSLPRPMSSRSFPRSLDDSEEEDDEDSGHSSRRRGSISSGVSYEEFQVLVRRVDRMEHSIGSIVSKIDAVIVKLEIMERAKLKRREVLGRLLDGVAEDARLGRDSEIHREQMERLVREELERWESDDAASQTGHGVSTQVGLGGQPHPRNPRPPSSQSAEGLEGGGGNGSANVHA
In words: co-IP; intracellular vesicle fractions of mouse kidney lysate incubated overnight with polycystin-2 antibody or control mouse IgG, ProteinG Dynabeads; Western blot for Sec8.

By UniProt entry, the sequences of proteins in these tests, tags left out.
UniProt O00471: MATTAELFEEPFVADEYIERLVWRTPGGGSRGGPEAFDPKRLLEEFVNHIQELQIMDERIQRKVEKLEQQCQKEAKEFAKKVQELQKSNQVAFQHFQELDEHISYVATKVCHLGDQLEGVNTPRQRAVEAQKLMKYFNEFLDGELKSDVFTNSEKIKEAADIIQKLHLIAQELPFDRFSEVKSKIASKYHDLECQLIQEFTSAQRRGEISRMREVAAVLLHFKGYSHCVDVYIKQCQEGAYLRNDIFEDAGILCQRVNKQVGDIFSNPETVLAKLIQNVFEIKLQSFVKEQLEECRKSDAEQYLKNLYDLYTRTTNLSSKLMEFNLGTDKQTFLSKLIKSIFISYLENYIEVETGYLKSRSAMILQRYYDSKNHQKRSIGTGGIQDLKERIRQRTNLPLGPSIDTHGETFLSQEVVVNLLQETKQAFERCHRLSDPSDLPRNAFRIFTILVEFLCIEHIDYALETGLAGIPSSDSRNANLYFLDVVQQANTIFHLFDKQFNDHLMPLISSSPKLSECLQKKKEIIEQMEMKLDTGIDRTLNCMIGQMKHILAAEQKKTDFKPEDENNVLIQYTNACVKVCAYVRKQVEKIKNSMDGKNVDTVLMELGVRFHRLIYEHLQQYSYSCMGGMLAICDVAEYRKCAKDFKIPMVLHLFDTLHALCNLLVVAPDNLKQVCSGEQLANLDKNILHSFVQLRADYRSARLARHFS
UniProt P04406: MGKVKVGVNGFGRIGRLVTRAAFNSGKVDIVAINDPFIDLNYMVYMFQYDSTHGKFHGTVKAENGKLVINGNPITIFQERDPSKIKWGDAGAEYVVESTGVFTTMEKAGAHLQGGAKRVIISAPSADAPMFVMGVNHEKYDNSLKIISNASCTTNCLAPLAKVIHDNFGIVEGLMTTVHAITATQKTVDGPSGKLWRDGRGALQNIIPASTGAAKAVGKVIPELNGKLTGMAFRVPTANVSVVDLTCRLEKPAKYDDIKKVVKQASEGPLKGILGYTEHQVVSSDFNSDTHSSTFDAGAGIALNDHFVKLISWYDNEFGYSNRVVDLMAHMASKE
UniProt Q8IY31: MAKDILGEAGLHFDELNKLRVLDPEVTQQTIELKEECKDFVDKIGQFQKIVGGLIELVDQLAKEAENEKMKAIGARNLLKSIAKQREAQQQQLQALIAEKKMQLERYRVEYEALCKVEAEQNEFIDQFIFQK
UniProt O35382: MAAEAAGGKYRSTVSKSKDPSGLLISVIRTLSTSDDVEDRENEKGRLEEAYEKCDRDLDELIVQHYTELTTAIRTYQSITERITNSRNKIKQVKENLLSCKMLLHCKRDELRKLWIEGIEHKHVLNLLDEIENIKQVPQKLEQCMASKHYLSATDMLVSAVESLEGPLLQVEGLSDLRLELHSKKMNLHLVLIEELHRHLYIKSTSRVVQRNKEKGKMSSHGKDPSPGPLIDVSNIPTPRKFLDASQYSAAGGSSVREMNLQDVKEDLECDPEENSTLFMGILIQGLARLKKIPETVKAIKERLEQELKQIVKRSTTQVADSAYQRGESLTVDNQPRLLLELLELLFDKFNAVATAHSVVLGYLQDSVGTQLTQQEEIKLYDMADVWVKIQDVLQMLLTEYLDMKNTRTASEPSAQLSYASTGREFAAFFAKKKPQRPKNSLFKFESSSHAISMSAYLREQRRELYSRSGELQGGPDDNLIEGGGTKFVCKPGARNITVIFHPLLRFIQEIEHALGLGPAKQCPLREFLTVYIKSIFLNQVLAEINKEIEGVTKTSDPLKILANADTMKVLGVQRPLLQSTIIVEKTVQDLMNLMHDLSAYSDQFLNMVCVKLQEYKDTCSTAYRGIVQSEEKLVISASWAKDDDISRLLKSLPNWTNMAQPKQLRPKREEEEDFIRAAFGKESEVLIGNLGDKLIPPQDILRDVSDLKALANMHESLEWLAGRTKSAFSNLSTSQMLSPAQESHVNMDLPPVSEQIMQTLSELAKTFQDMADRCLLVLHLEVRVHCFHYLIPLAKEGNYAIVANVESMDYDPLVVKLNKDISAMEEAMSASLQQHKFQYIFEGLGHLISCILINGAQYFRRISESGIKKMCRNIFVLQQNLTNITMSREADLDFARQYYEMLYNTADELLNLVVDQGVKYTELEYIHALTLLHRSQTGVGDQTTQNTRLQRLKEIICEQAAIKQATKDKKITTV

For test [3], the target named is Sec10-GST (full-length human Sec10 fused to GST) (human) (UniProt O00471). In words: pull-down; in vitro translated Sec8, polycystin-2, IFT88 and p53, followed by pulldown with Sec10-GST; only the target purified.

These are yes or no findings as the source states them, for the method shown. In cells and extracts the contact can be indirect. Some results given as binding are weak or reduced against the parent protein; the word gives no strength.

Drawing on publication PMC3072367, this text covers binding for 6 molecules.

Regarding “GAPDH (endogenous, HEK293) (from UniProt P04406 1-335)”, in test [1], the binding result was “no binding”.

In the case of “IFT20 (endogenous, HEK293) (from UniProt Q8IY31 1-132)”, the binding entry in test [1] is on record as “binds”.

Turning to “exocyst Sec8 (endogenous, mouse kidney) (from UniProt O35382 1-975)”, the binding result in test [2] is “binds”. Take “p53 (in vitro translated) (from UniProt P04637 1-393)”: the binding entry in test [3] is “no binding”.

B1: IFT88 (in vitro translated) (protein, UniProt Q13099 1-824)
chain: MMQNVHLAPETDEDDLYSGYNDYNPIYDIEELENDAAFQQAVRTSHGRRPPITAKISSTAVTRPIATGYGSKTSLASSIGRPMTGAIQDGVTRPMTAVRAAGFTKAALRGSAFDPLSQSRGPASPLEAKKKDSPEEKIKQLEKEVNELVEESCIANSCGDLKLALEKAKDAGRKERVLVRQREQVTTPENINLDLTYSVLFNLASQYSVNEMYAEALNTYQVIVKNKMFSNAGILKMNMGNIYLKQRNYSKAIKFYRMALDQVPSVNKQMRIKIMQNIGVTFIQAGQYSDAINSYEHIMSMAPNLKAGYNLTICYFAIGDREKMKKAFQKLITVPLEIDEDKYISPSDDPHTNLVTEAIKNDHLRQMERERKAMAEKYIMTSAKLIAPVIETSFAAGYDWCVEVVKASQYVELANDLEINKAVTYLRQKDYNQAVEILKVLEKKDSRVKSAAATNLSALYYMGKDFAQASSYADIAVNSDRYNPAALTNKGNTVFANGDYEKAAEFYKEALRNDSSCTEALYNIGLTYEKLNRLDEALDCFLKLHAILRNSAEVLYQIANIYELMENPSQAIEWLMQVVSVIPTDPQVLSKLGELYDREGDKSQAFQYYYESYRYFPCNIEVIEWLGAYYIDTQFWEKAIQYFERASLIQPTQVKWQLMVASCFRRSGNYQKALDTYKDTHRKFPENVECLRFLVRLCTDLGLKDAQEYARKLKRLEKMKEIREQRIKSGRDGSGGSRGKREGSASGDSGQNYSASSKGERLSARLRALPGTNEPYESSSNKEIDASYVDPLGPQIERPKTAAKKRIDEDDFADEELGDDLLPE
Take B1: in test [3], the binding result is “no binding”.

B2: polycystin-2 (in vitro translated) (protein, UniProt Q13563 1-968)
chain: MVNSSRVQPQQPGDAKRPPAPRAPDPGRLMAGCAAVGASLAAPGGLCEQRGLEIEMQRIRQAAARDPPAGAAASPSPPLSSCSRQAWSRDNPGFEAEEEEEEVEGEEGGMVVEMDVEWRPGSRRSAASSAVSSVGARSRGLGGYHGAGHPSGRRRRREDQGPPCPSPVGGGDPLHRHLPLEGQPPRVAWAERLVRGLRGLWGTRLMEESSTNREKYLKSVLRELVTYLLFLIVLCILTYGMMSSNVYYYTRMMSQLFLDTPVSKTEKTNFKTLSSMEDFWKFTEGSLLDGLYWKMQPSNQTEADNRSFIFYENLLLGVPRIRQLRVRNGSCSIPQDLRDEIKECYDVYSVSSEDRAPFGPRNGTAWIYTSEKDLNGSSHWGIIATYSGAGYYLDLSRTREETAAQVASLKKNVWLDRGTRATFIDFSVYNANINLFCVVRLLVEFPATGGVIPSWQFQPLKLIRYVTTFDFFLAACEIIFCFFIFYYVVEEILEIRIHKLHYFRSFWNCLDVVIVVLSVVAIGINIYRTSNVEVLLQFLEDQNTFPNFEHLAYWQIQFNNIAAVTVFFVWIKLFKFINFNRTMSQLSTTMSRCAKDLFGFAIMFFIIFLAYAQLAYLVFGTQVDDFSTFQECIFTQFRIILGDINFAEIEEANRVLGPIYFTTFVFFMFFILLNMFLAIINDTYSEVKSDLAQQKAEMELSDLIRKGYHKALVKLKLKKNTVDDISESLRQGGGKLNFDELRQDLKGKGHTDAEIEAIFTKYDQDGDQELTEHEHQQMRDDLEKEREDLDLDHSSLPRPMSSRSFPRSLDDSEEDDDEDSGHSSRRRGSISSGVSYEEFQVLVRRVDRMEHSIGSIVSKIDAVIVKLEIMERAKLKRREVLGRLLDGVAEDERLGRDSEIHREQMERLVREELERWESDDAASQISHGLGTPVGLNGQPRPRSSRPSSSQSTEGMEGAGGNGSSNVHV
With B2, in test [3], the binding entry is “no binding”.
